At least one compound was matched to its structure with a doubt left.
Tested on: isolated pig islets
Test: In vitro islet functionality (24 hr incubation at G5, G15, G15+Fsk; insulin/glucagon RIA)
Type: cell-based
Conditions: islet remodeling with low doses of STZ
Method: The following steps were performed with the samples kept on ice. […] The samples were then sonicated 4×20 seconds (Sonifier B 12 [Branson Sonic Power Company, Danbury, Conn., USA]) and centrifugated 10 minutes at 4° C. at 1500 rpm. The first supernatant formed was removed and kept at −20° C. […] The samples were then kept at −20° C. overnight. After a step of centrifugation 10 minutes at 4° C. at 1500 rpm, the second supernatant was removed and kept at −20° C. […] The three supernatants were then pooled and constituted the pancreas extract. Human insulin specific RIA KIT and Glucagon RIA KIT (Millipore, Billerica, Mass., USA) were used for the determination of the hormonal content in human/pig pancreatic extractions as well as in isolated islets (see below). The content of insulin and glucagon in the extracts was performed following the instructions of the manufacturer. […] After incubation overnight at room temperature, 1 mL of precipitating reagent were added, followed by incubation 20 minutes at 4° C. The samples were then centrifuged 20 minutes at 2000-3000×g at 4° C.
Three replicates per concentration were performed. Media were thereafter recovered for insulin and glucagon quantification and islets were transferred in acid-ethanol for hormones extraction and quantification by radioimmuno-assay (see above).

**Q.** For `CN(N=O)C(=O)N[C@H]1C(O)O[C@H](CO)[C@@H](O)[C@@H]1O` (mixture of isomers) [STZ, Streptozotocin], which “glucagon concentration in isolated islets in culture” value is on record?
**A.** 10^−4-10^−5
